From PubChem BioAssay AID651640 (Broad Institute, 2012)
Among all 350,000 compounds or so, about 6,000 (1.7%) were called active. The shares of active, inactive and inconclusive entries below differ from those in the screen. Rule as the data show it: active = CPE inhibition above about 20% (passing the limit was not always enough); inconclusive = no clear call, values can overlap the other calls; tested in BHK-21 cells. A structure can be active in one record and inactive in another.

Experiment: protection of cells from dengue 2 killing – plate reader, single concentration, primary screen (AID 651640);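 also: 0% = median of neutral control wells and 100% = median of positive control wells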
Conditions: DENV2-infected cells, cytopathic effect rescue, at 9.99 µM, stronger effect = higher value

Row | Compound | CPE inhibition
1 | Cc1ccc(-c2ccc([C@H]3[C@@H](CO)N4C(=O)CN(C(=O)Nc5cccc(F)c5)C[C@H]34)cc2)cc1 | inconclusive: 24.6%
2 | CN(CC(=O)Nc1cccc(F)c1)C(=O)Cn1c(=O)cnc2ccccc21 | inactive: -7.9%
3 | CC(=O)NCCc1nc2cc(NC(=O)c3ccccc3C)ccc2n1C | inconclusive: 39.3%
4 | CC(C)C(=O)Nc1ccc2c(c1)C(=O)N(C)[C@@H]1CC[C@@H](CC(=O)NCc3ccccc3)O[C@H]1CO2 | inconclusive: 64.3%
5 | CC(C)(C)NC[C@H](O)COc1nsnc1N1CCOCC1 | inconclusive: 20%
6 | O=C(COC(=O)c1cc(Br)ccc1O)Nc1ccc2c(c1)OCO2 | inconclusive: 30.8%
7 | C[C@]12CCC(=O)C=C1CC[C@@H]1[C@@H]2[C@@H](O)C[C@@]2(C)[C@H]1CC[C@]2(O)C(=O)COC(=O)CCC(=O)O | inconclusive: 27.9%
8 | CN(C)C(=O)CCc1ccc2c3c([nH]c2c1)[C@]1(CCC2CCCC2)[C@@H](C(=O)N2CCOCC2)C[C@H](CC(=O)NCc2ccco2)C(=O)N1CC3 | inactive: -10.7%
9 | COc1ccc(CN(C)C[C@H]2OCCCC[C@H](C)Oc3ccc(NS(=O)(=O)c4cccs4)cc3C(=O)N([C@@H](C)CO)C[C@@H]2C)cc1 | inconclusive: 35.1%
10 | NC(=O)C12NC(Cc3ccccc31)c1ccccc12 (stereo unspecified) | inconclusive: 48.3%
11 | COc1ccc(C(CCNCc2ccc(OC(C)C)cc2)C(C)C)cc1 (stereo unspecified) | inactive: -26.1%
12 | CC1(C(=O)NS(=O)(=O)c2ccc(F)cc2F)CCN1C(=O)Cc1ccccc1 (stereo unspecified) | inconclusive: 39.9%
13 | CCN(C(=O)CSc1nnc(-c2ccc(C)cc2)n1N)c1c(N)n(Cc2ccccc2)c(=O)[nH]c1=O | inconclusive: 52.1%
14 | C[C@@H]1CN([C@H](C)CO)C(=O)c2cc(NS(=O)(=O)c3cccs3)ccc2O[C@H]1CN(C)Cc1ccc(C(=O)Nc2ccccc2N)cc1 | inconclusive: 37.3%
15 | CC(=O)N(CCN(C)C)c1nc2cc3c(cc2s1)OCCO3 | inconclusive: 29.7%
16 | COc1ccc(CSc2ccc(S(=O)(=O)N3CCCC3)cn2)cc1F | inconclusive: 29.2%
17 | Cc1nccc2oc(=O)c(NC(=O)c3ccc(Cl)cc3)cc12 | inconclusive: 20.9%
18 | C[C@@H]1CCCCO[C@H](CN(C)Cc2ccc(C(=O)O)cc2)[C@H](C)CN([C@@H](C)CO)C(=O)c2cc(NS(=O)(=O)c3cccs3)ccc2O1 | inconclusive: 20.1%
19 | COc1ccc(NS(=O)(=O)c2cc(NC(=O)C3=NN(c4ccccc4)C(=O)CC3)ccc2C)cc1 | inconclusive: 38.5%
20 | CCCC#Cc1ccc2c(c1)O[C@H](CN(C)Cc1cccnc1)[C@@H](C)CN([C@@H](C)CO)S2(=O)=O | active: 25.5%
21 | Cc1ccc(S(=O)(=O)N(C)C)cc1NC(=O)c1cc(S(=O)(=O)N2CCCCC2)ccc1N1CCOCC1 | active: 22.7%
22 | COc1cccc(C(=O)Nc2ccc3c(c2)C(=O)N(C)[C@H]2CC[C@@H](CC(=O)NCCCN4CCOCC4)O[C@@H]2CO3)c1 | inconclusive: 22.1%
23 | C(=C\c1ccc(C2[C@@H]3CN(Cc4cocn4)C[C@H]2N3)cc1)/c1ccccc1 (stereo partly specified) | active: 30.5%
24 | Cc1ccc(S(=O)(=O)N(C)C[C@H]2OCCCC[C@@H](C)Oc3ccc(NC(=O)Nc4cccc5ccccc45)cc3C(=O)N([C@H](C)CO)C[C@@H]2C)cc1 | inconclusive: 54%

Row | Compound | CPE inhibition
25 | NC(=O)C(CCC(=O)c1ccc(Br)cc1)S(=O)(=O)c1ccccc1 (stereo unspecified) | active: 31%
26 | Cc1cc(C(=O)Cn2cnc3ccc(Cl)cc3c2=O)c(C)n1C1CC1 | inconclusive: 40.2%
27 | Cc1cc(C)c2oc(C(=O)N(Cc3ccc(F)cc3)C3CCS(=O)(=O)C3)cc(=O)c2c1 (stereo unspecified) | inactive: -4.84%
28 | C[C@@H]1CN([C@H](C)CO)C(=O)c2cccc(NC(=O)c3ccncc3)c2O[C@H]1CN(C)S(=O)(=O)c1ccccc1 | inconclusive: 30.9%
29 | COc1ccc(NC(=O)N(C)C[C@H]2Oc3c(NC(=O)CCCCCC(=O)Nc4ccccc4N)cccc3C(=O)N([C@@H](C)CO)C[C@@H]2C)cc1 | active: 30%
30 | Cc1ccc(S(=O)(=O)N[C@@H]2C=C[C@@H](CC(=O)NCc3ccc(Cl)c(Cl)c3)O[C@H]2CO)cc1 | inconclusive: 24.8%
31 | CC1(C(=O)NS(=O)(=O)c2ccc(F)cc2F)CCN1C(=O)c1ccco1 (stereo unspecified) | inconclusive: 59.9%
32 | COc1ccc(-n2sc3ccc(F)cc3c2=O)cc1 | inactive: -3.75%
33 | COc1cc2cc(CCCOC(=O)CCCC(=O)O)oc(=O)c2cc1OC | active: 38%
34 | Cc1noc(C)c1S(=O)(=O)Nc1ccc2c(c1)C(=O)N([C@H](C)CO)C[C@H](C)[C@@H](CN(C)CC1CCCCC1)OCCCC[C@H](C)O2 | inactive: -7.71%
35 | CCCc1cc(=O)oc2cc(C)cc(OCC(=O)N3C[C@H]4C[C@@H](C3)c3cccc(=O)n3C4)c12 | inconclusive: 24.4%
36 | COc1ccc(S(=O)(=O)Nc2ccc3c(c2)C(=O)N([C@H](C)CO)C[C@H](C)[C@H](CN(C)Cc2ccccc2)OCCCC[C@@H](C)O3)cc1 | inactive: -7.08%
37 | CCOC(=O)c1c(N2C(=O)CC(Sc3ccccc3C(=O)O)C2=O)sc(C)c1C (stereo unspecified) | inconclusive: 22.6%
38 | C[C@@H]1CN([C@H](C)CO)C(=O)c2cc(NC(=O)Nc3ccccc3)ccc2O[C@@H](C)CCCCO[C@@H]1CN(C)C | inconclusive: 66.1%
39 | O=C1NCC(Nc2ccccc2Cl)C(=O)N1 (stereo unspecified) | inconclusive: 28.8%
40 | CCN(C[C@H]1N[C@@](Cc2ccccc2)(C(=O)OC)[C@H]2C(=O)N(C)C(=O)[C@@H]12)C(=O)NC(C)C | inconclusive: 22.3%
41 | C[C@H](CO)N1C[C@H](C)[C@H](CN(C)C(=O)NC2CCCCC2)Oc2ccc(NC(=O)Cn3cnnn3)cc2C1=O | active: 99%
42 | O=C1C(Cl)=C(N2CCCCCC2)C(=O)N1c1ccc(Cl)cc1 | active: 75.9%
43 | CC(C)NC(=O)NCC[C@@H]1CC[C@H](NS(=O)(=O)c2ccc(-c3ccccc3)cc2)[C@@H](CO)O1 | inconclusive: 42.5%
44 | CC1CN(c2ccc([N+](=O)[O-])cc2F)CCN1C(=O)c1ccco1 (stereo unspecified) | inconclusive: 27.8%
45 | NCCCC[C@H](N[C@@H](CCc1ccccc1)C(=O)O)C(=O)N1CCC[C@H]1C(=O)O | inconclusive: 23.2%
46 | O=C(NCCSc1c[nH]c2ccccc12)c1ccc2c(c1)OCO2 | inconclusive: 35.8%
47 | CCn1cc(S(=O)(=O)CC(=O)Nc2ccc(OC)cc2)c2ccccc21 | inconclusive: 26.3%
48 | CCOC(=O)[C@H]1[C@H]2COc3ccccc3[C@@H]2N2C(=O)CN(Cc3ccccc3)C(=O)[C@@]12C | active: 95%

Row | Compound | CPE inhibition
49 | CCc1ccc(NC(=O)C(C)OC(=O)/C=C/c2ccc(O)c(OC)c2)cc1 (stereo unspecified) | inconclusive: 23.2%
50 | CNC(=O)C[C@@H]1CC[C@H]2[C@@H](COc3ccc(NC(=O)Nc4cccc(Cl)c4)cc3C(=O)N2C)O1 | inactive: 9.13%
51 | CCCCn1c(N)c(N(CC(C)C)C(=O)C2CC(=O)N(CCc3ccccc3)C2)c(=O)[nH]c1=O (stereo unspecified) | inconclusive: 28.9%
52 | CCOC(=O)N1CCN(C(=O)C2CCN(C(=O)c3ccc(C(C)(C)C)cc3)CC2)CC1 | inconclusive: 23.1%
53 | N#C[C@H]1[C@@H](c2ccc(C3=CCCC3)cc2)[C@@H](CO)N1C(=O)NC1CCCCC1 | inconclusive: 23.2%
54 | Cc1cc2nc(NCCCO)n(CC(=O)c3cc(C(C)(C)C)c(O)c(C(C)(C)C)c3)c2cc1C | active: 32.3%
55 | Cc1ccc(NC(=O)C2CCCN2C(=O)NC2CCCCC2)cc1F (stereo unspecified) | inconclusive: 32.4%
56 | C[C@H]1CN([C@@H](C)CO)C(=O)Cc2cc(NS(=O)(=O)c3cccs3)ccc2O[C@H]1CN(C)Cc1ccc2c(c1)OCO2 | active: 104%
57 | CCN(CC)C(=O)C1=C(C)N(Cc2ccc(F)cc2)C(=O)C(CC(=O)NC2CCCC2)C1 (stereo unspecified) | inconclusive: 21.6%
58 | COCCNC(=S)NCc1ccc2[nH]c3c(c2c1)CCCC3 | active: 32.9%
59 | C/C=C/c1cnc2c(c1)C(=O)N([C@@H](C)CO)C[C@H](C)[C@@H](CN(C)C(=O)Nc1ccc(F)cc1)O2 | inactive: -4.79%
60 | CCN(CC)c1ccc([C@H]2[C@@H]3CCCC[C@]3(O)CCN2CC(=O)NCc2ccco2)cc1 | inconclusive: 43.5%
61 | CC(C)(C)c1ccc(OCCCN2CCCC2)cc1 | inconclusive: 22.7%
62 | C/C(=C\C(=O)C(F)(F)F)Nc1ccc(C)cc1 | inactive: -0.78%
63 | Cc1nnc(N2C(=O)C(=O)/C(=C(/O)c3ccc4c(c3)OCCO4)C2c2cccc([N+](=O)[O-])c2)s1 (stereo unspecified) | inconclusive: 23%
64 | C[C@H]1CN([C@@H](C)CO)C(=O)c2cccc(NC(=O)c3ccncc3)c2O[C@H]1CN(C)Cc1ccc(C(F)(F)F)cc1 | active: 23.6%
65 | CC(C)(C(=O)N1CCC1(C)C(=O)NS(=O)(=O)c1cccc(F)c1)c1ccccc1 (stereo unspecified) | inactive: 0.235%
66 | COc1cccc(C(O)c2ncc(-c3ccc4ccccc4c3)[nH]2)c1 (stereo unspecified) | inconclusive: 50%
67 | Clc1nc(NC2CCCCC2)c2cn[nH]c2n1 | inconclusive: 54.6%
68 | COc1nc(C)ccc1-c1noc(-c2ccccn2)n1 | inconclusive: 32%
69 | CCOC(=O)c1ccccc1NC(=O)c1ccc2c(=O)n3c(nc2c1)CCCCC3 | inconclusive: 87.6%
70 | CCOC(=O)N1CCN(C(=O)c2ccc(S(=O)(=O)Nc3ccccc3)cc2)CC1 | inconclusive: 55.2%
71 | COC(=O)c1ccc(CNC(=O)c2cc3ccccc3oc2=O)cc1 | inconclusive: 23.9%

An excerpt of these results, as tab-separated lines:
Row	Compound	CPE inhibition
64	C[C@H]1CN([C@@H](C)CO)C(=O)c2cccc(NC(=O)c3ccncc3)c2O[C@H]1CN(C)Cc1ccc(C(F)(F)F)cc1	active: 23.6%
65	CC(C)(C(=O)N1CCC1(C)C(=O)NS(=O)(=O)c1cccc(F)c1)c1ccccc1 (stereo unspecified)	inactive: 0.235%
66	COc1cccc(C(O)c2ncc(-c3ccc4ccccc4c3)[nH]2)c1 (stereo unspecified)	inconclusive: 50%
67	Clc1nc(NC2CCCCC2)c2cn[nH]c2n1	inconclusive: 54.6%
68	COc1nc(C)ccc1-c1noc(-c2ccccn2)n1	inconclusive: 32%
